Results published in the supplement of paper PMC10849652.
The list shows a part of the results. Residues, ends and D or L forms follow the SMILES beside them. *: point of attachment. Cbz = O=C(OCc1ccccc1)*

Chains of the proteins cited; added tags and fusions are not shown. Lines headed by an entry give the natural chain unless they say otherwise; changes in a name come on top.
UniProt Q86VS8: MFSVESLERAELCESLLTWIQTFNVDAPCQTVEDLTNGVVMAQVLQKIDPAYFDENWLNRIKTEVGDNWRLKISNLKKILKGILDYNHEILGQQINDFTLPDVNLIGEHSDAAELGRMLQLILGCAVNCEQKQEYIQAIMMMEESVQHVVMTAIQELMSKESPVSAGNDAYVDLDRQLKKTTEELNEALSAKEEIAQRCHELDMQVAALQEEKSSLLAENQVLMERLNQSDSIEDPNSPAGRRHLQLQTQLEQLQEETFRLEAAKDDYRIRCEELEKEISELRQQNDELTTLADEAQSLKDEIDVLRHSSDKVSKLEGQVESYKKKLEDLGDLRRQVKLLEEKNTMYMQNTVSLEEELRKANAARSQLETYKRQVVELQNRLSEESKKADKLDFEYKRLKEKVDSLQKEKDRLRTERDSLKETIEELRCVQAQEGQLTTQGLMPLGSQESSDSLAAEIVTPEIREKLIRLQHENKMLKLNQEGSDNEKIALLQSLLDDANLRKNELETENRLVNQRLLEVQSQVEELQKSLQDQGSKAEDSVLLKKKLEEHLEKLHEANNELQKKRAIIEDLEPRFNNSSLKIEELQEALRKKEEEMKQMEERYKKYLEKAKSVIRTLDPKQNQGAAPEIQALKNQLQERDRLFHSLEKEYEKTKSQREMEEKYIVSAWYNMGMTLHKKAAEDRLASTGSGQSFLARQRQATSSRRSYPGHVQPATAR
UniProt Q13151: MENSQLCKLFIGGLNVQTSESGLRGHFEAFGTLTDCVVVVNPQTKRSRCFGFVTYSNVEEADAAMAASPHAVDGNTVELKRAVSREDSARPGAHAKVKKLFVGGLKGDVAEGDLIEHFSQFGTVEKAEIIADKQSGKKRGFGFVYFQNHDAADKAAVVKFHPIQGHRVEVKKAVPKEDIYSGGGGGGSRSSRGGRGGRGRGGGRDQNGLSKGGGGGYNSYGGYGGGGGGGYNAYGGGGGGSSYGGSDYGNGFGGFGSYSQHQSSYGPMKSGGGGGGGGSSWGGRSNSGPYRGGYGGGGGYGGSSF
UniProt Q9BUP3: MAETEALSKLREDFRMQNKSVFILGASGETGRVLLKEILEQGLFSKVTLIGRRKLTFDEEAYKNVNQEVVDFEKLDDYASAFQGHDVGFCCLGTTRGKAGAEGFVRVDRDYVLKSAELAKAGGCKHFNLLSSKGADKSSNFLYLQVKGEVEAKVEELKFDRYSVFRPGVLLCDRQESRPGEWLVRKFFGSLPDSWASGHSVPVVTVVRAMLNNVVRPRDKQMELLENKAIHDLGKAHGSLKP
UniProt Q58FF6, whole entry, looked up: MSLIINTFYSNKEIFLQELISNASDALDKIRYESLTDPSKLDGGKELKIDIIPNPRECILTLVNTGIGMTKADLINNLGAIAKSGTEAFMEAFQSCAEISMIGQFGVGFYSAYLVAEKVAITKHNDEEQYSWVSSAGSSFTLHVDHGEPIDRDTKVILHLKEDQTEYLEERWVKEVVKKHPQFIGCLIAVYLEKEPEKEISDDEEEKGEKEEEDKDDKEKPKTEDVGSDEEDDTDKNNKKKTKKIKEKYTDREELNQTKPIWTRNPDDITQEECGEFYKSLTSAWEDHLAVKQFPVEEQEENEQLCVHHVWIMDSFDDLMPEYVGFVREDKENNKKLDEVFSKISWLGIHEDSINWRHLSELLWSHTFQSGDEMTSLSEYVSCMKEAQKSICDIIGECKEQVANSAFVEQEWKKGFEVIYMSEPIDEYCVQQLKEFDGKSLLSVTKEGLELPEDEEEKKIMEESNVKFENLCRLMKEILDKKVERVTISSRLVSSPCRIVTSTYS
UniProt P05362: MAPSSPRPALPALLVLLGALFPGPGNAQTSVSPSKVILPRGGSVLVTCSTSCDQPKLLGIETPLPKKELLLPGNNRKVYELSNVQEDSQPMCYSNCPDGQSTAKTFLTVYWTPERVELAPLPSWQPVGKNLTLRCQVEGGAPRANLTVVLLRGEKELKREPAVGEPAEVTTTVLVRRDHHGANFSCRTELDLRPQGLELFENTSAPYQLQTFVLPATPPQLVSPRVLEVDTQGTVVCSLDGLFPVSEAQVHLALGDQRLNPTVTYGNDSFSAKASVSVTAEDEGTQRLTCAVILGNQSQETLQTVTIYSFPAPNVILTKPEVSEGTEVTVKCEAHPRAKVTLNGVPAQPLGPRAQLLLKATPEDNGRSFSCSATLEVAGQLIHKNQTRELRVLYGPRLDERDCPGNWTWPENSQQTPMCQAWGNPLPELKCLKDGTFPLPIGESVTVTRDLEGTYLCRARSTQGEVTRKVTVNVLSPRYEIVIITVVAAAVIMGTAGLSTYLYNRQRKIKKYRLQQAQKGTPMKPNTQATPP
UniProt Q96FZ2: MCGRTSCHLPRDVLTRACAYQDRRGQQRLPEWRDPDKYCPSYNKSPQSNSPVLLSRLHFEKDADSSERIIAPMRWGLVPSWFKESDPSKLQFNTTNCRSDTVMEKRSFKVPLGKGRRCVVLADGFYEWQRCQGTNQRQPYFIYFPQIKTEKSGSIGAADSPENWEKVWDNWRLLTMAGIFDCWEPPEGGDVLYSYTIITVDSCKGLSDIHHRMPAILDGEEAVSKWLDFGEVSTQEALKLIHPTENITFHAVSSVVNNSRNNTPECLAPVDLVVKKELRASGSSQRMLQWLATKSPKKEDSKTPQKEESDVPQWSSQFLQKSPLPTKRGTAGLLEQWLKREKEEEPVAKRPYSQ
UniProt P54652, whole entry, looked up: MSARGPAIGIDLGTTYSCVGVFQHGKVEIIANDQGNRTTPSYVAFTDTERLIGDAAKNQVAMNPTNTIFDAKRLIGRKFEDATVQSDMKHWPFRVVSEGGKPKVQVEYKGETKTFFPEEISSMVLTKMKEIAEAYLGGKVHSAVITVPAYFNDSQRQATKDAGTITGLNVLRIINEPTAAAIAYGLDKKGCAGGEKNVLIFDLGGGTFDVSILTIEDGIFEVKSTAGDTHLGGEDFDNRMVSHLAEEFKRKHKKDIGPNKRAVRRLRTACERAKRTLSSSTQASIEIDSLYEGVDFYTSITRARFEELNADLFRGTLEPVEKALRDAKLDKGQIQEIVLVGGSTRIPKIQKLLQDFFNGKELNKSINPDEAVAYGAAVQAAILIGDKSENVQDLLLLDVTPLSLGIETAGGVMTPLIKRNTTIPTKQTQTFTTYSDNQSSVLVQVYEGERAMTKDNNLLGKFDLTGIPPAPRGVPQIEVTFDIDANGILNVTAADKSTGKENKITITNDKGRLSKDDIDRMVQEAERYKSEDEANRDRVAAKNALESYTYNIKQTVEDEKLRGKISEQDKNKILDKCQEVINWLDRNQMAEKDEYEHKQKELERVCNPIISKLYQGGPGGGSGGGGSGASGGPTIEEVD
UniProt P52789: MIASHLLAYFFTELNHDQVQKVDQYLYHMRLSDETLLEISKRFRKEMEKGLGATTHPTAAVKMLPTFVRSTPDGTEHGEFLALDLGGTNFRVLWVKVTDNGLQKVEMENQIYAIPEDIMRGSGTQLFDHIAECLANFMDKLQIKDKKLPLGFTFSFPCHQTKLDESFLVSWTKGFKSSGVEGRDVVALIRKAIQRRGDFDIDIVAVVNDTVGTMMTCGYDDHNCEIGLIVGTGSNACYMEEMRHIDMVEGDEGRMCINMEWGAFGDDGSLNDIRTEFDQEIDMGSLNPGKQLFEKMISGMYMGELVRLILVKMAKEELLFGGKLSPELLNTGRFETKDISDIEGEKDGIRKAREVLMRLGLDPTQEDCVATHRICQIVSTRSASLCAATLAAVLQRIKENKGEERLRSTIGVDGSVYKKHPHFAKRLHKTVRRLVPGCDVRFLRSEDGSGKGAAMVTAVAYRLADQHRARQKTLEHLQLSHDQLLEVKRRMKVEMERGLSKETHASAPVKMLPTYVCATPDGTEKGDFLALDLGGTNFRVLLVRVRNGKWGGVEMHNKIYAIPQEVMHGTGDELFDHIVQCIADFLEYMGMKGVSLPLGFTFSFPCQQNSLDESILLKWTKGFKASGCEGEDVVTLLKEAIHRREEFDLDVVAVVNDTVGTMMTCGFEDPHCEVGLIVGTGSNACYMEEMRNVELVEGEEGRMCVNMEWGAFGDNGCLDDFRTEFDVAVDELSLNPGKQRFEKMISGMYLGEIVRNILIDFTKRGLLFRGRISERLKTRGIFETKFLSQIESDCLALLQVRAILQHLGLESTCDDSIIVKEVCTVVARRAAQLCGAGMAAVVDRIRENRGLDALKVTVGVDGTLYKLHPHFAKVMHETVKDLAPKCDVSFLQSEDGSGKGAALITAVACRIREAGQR
UniProt Q05084: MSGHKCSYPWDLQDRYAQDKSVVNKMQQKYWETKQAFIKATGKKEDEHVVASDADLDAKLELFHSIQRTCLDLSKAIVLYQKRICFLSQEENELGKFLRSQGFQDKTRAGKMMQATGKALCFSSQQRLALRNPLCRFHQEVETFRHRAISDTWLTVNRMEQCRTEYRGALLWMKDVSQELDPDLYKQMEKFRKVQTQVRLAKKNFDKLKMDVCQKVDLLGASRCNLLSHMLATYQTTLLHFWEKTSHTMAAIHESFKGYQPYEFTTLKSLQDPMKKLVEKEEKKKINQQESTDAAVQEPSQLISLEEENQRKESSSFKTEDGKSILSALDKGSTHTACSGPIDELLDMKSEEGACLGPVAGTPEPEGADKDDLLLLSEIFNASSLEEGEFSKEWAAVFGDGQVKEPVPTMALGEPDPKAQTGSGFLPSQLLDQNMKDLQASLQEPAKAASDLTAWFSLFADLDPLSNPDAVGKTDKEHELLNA
UniProt Q9NP66: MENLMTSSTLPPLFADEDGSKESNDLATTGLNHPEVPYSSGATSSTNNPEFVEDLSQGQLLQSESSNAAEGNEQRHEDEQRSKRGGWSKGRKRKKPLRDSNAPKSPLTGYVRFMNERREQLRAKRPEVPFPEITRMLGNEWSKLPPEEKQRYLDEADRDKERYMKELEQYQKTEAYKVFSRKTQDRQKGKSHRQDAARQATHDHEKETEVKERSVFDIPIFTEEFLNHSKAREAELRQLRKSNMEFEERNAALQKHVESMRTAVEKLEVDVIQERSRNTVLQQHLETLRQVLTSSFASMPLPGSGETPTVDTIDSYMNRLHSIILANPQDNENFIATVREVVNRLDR

Assays:
Assay in all cases: log2 fold change, soluble protein after heating vs DMSO (PISA); higher = thermal stabilisation; K562 cells, 10 uM, 30 min; active = over 0.2 and 3.5 SD of the protein, either way, in both replicates (recomputed)
[1] = compound: C#Cc1cccc(Nc2ncnc3cc(OCCOC)c(OCCOC)cc23)c1 [erlotinib]
Method in brief: (§1)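 Soluble protein was defined as the supernatant after 21,000xg for 90 min. It came from K562 cells at 2×10^6 cells/mL given 10 μM compound for 30 min, heated in aliquots for 3 min across 48°C-58°C, pooled, and extracted in PBS with 0.5% NP-40 at 4°C, and was quantified by TMTpro 16plex LC-MS/MS with equalised channel sums. Thermal stability against control samples, from duplicates, is reported as log2 fold change.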

[2] = compound: C/C(=N\NC(=O)C1=CC(=CC=C1)S(=O)(=O)N2CCOCC2)/C3=C(C=CC(=C3)Cl)O
Method in brief: as §1

[3] = compound: C1=CC(=C(C=C1Cl)C2=NC3=NC=CN=C3C(=N2)NC4=CC=NC=C4)F
Method in brief: as §1

[4] = compound: C1=CC(=CC=C1C2=NC3=C(N2)C=C(C=C3)C(=O)N)OC4=CC=C(C=C4)Cl
Method in brief: as §1

[5] = compound: C1=CC2=C(C=CC(=C2)/C=C\3/C(=O)NC(=NCC4=CC=CS4)S3)N=C1
Method in brief: as §1

[6] = compound: C1=CC2=NC=CN=C2C=C1/C=C/3\C(=O)NC(=O)S3
Method in brief: as §1

[7] = compound: C1=CC=C(C=C1)C2=NC(=C(N2)C3=CC=NC=C3)C4=CC(=C(C=C4)Cl)O
Method in brief: as §1

[8] = compound: C1=CC=C2C(=C1)C3=NNC4=CC=CC(=C43)C2=O
Method in brief: as §1

[9] = compound: C1CCN(C1)C(=O)NC2=CC=CC(=C2)NC3=NC=C(C(=N3)NCCC4=CN=CN4)Br
Method in brief: as §1

[10] = compound: C1CN(CCC1(CC2=CC=C(C=C2)Cl)N)C3=NC=NC4=C3C=CN4
Method in brief: as §1

[11] = compound: C1COCCN1CCN2C3=CC=CC=C3N=C2NC(=O)C4=CC(=CC=C4)[N+](=O)[O-] [IRAK-1-4 Inhibitor I]
Method in brief: as §1

[12] = compound: C=CC(=O)N1CCC[C@@H](n2nc(-c3ccc(Oc4ccccc4)cc3)c3c(N)ncnc32)C1 [ibrutinib]
Method in brief: as §1

[13] = compound: CC(=O)c1cnc2ccc(-c3cc(Cl)c(O)c(Cl)c3)nc2c1N[C@H]1CC[C@H](CN(C)C)CC1
Method in brief: as §1

[14] = compound: CC(C)(C)Cn1c(N)nc2ccc(-c3[nH]c(C(C)(C)C)nc3-c3ccc(F)cc3)nc21 [ralimetinib]
Method in brief: as §1

[15] = compound: CC(C)(O)CC(=O)NCCn1ccc2ncnc(Nc3ccc(Oc4cccc(C(F)(F)F)c4)c(Cl)c3)c21
Method in brief: as §1

[16] = compound: CC(C)C1=C2N=C(C=C(N2N=C1)NCC3=CC=CC=C3)NCCCCCCN
Method in brief: as §1

[17] = compound: CC(C)C[C@@H](C=O)NC(=O)[C@H](CC(C)C)NC(=O)[C@H](CC(C)C)NC(=O)OCc1ccccc1
Method in brief: as §1

[18] = compound: CC(C)N(C[C@H]1O[C@@H](n2cnc3c(N)ncnc32)[C@H](O)[C@@H]1O)[C@H]1C[C@@H](CCc2nc3cc(C(C)(C)C)ccc3[nH]2)C1 [pinometostat]
Method in brief: as §1

[19] = compound: CC1=C(C2=C(C=C1)C(=O)C3=CC=CC=C3N2CCCN)C
Method in brief: as §1

[20] = compound: CC1=C(C(CC(=O)N1)C2=CC=C(C=C2)C(F)(F)F)C(=O)NC3=C(C=C4C(=C3)C=NN4)F
Method in brief: as §1

Measured: log2 fold change

HOOK3 (UniProt Q86VS8)
inactive: [1] 0.04 | [2] 0.039 | [3] 0.009 | [4] -0.008 | [5] 0.055 | [6] 0.032 | [7] -0.002 | [8] -0.036 | [9] -0.005 | [10] -0.024 | [11] 0.003 | [12] -0.057 | [13] -0.018 | [14] 0.033 | [15] -0.109 | [16] -0.138 | [17] 0.056 | [18] 0.024 | [19] 0.02

HNRNPA0 (UniProt Q13151)
inactive: [1] -0.105 | [2] -0.112 | [3] -0.374 | [4] 0.171 | [5] 0.04 | [6] 0.072 | [8] -0.055 | [9] -0.025 | [10] 0.057 | [11] -0.172 | [12] 0.017 | [13] -0.104 | [15] -0.081 | [16] -0.262 | [18] 0.254 | [20] -0.171 | [19] 0.21

HTATIP2 isoform 3 (UniProt Q9BUP3)
active: [15] 0.651
inactive: [1] 0.016 | [2] 0.112 | [3] 0.016 | [4] -0.02 | [5] -0.143 | [6] 0.005 | [7] 0.012 | [8] 0.033 | [9] -0.039 | [10] 0.005 | [11] 0.007 | [12] 0.003 | [13] -0.034 | [14] 0.077 | [16] -0.182 | [17] -0.021 | [18] 0.006 | [19] 0.025

HSP90AB4P (UniProt Q58FF6)
inactive: [1] 0.168 | [2] 0.1 | [3] -0.098 | [4] 0.113 | [5] 0.015 | [6] 0.081 | [8] 0.141 | [9] -0.152 | [10] -0.077 | [11] 0.016 | [12] -0.129 | [13] -0.053 | [15] 0.02 | [16] 0.018 | [18] -0.026 | [20] 0.025 | [19] 0.086

HTD2 (UniProt P86397)
inactive: [1] 0.008 | [2] 0.002 | [3] -0.029 | [4] -0.034 | [5] 0.042 | [6] -0.028 | [8] 0.237 | [12] -0.245 | [13] 0.068 | [15] -0.362 | [16] -0.04

ICAM1 (UniProt P05362)
inactive: [1] 0.008 | [2] 0.008 | [3] 0.015 | [4] 0.018 | [5] -0.005 | [6] -0.033 | [7] -0.01 | [8] -0.004 | [9] -0.047 | [10] 0.073 | [11] 0.056 | [12] 0.042 | [13] -0.039 | [14] -0.02 | [15] 0.002 | [16] 0.157 | [17] -0.001 | [18] -0.009 | [19] 0.045

HPCAL1 (UniProt P37235)
inactive: [1] 0.011 | [2] 0.048 | [3] 0.029 | [4] 0 | [5] 0 | [6] 0.057 | [7] -0.063 | [8] 0.002 | [9] 0.013 | [10] -0.034 | [11] 0.02 | [12] -0.015 | [13] 0.028 | [14] -0.117 | [15] -0.018 | [16] -0.081 | [17] -0.015 | [18] -0.003 | [19] -0.041

HMCES (UniProt Q96FZ2)
inactive: [1] 0.077 | [2] 0.07 | [3] 0.076 | [4] -0.171 | [5] 0.171 | [6] -0.024 | [7] -0.051 | [8] -0.034 | [9] 0.062 | [10] -0.032 | [12] 0.169 | [13] -0.121 | [14] -0.169 | [15] 0.062 | [16] -0.081 | [17] 0.018 | [20] 0.068 | [19] 0.314

HSPA2 (UniProt P54652)
active: [16] -0.441
inactive: [1] 0.623 | [2] -0.047 | [4] -0.182 | [5] 0.022 | [6] 0.058 | [7] -0.095 | [8] 0.192 | [11] 0.008 | [12] -0.006 | [13] -0.28 | [14] 0.01 | [17] 0.041 | [18] 0.05

HK2 (UniProt P52789)
inactive: [1] -0.068 | [2] 0.037 | [3] 0.051 | [4] 0 | [5] 0.028 | [6] -0.015 | [7] 0.005 | [8] -0.017 | [9] 0.009 | [10] 0.023 | [11] -0.007 | [12] -0.01 | [13] -0.096 | [14] -0.037 | [15] -0.046 | [16] 0.096 | [17] -0.022 | [18] -0.001 | [19] 0.034

ICA1 isoform 2 (UniProt Q05084)
inactive: [1] 0.064 | [2] 0.017 | [3] -0.013 | [4] 0.031 | [5] -0.017 | [7] -0.086 | [8] 0.02 | [11] 0.066 | [13] -0.038 | [14] -0.391 | [15] -0.073 | [16] -0.123 | [17] -0.118 | [18] 0.108

2 successive records out of the list so far:
HK2 (UniProt P52789)
inactive: [1] -0.068 | [2] 0.037 | [3] 0.051 | [4] 0 | [5] 0.028 | [6] -0.015 | [7] 0.005 | [8] -0.017 | [9] 0.009 | [10] 0.023 | [11] -0.007 | [12] -0.01 | [13] -0.096 | [14] -0.037 | [15] -0.046 | [16] 0.096 | [17] -0.022 | [18] -0.001 | [19] 0.034

ICA1 isoform 2 (UniProt Q05084)
inactive: [1] 0.064 | [2] 0.017 | [3] -0.013 | [4] 0.031 | [5] -0.017 | [7] -0.086 | [8] 0.02 | [11] 0.066 | [13] -0.038 | [14] -0.391 | [15] -0.073 | [16] -0.123 | [17] -0.118 | [18] 0.108

Further entries.

HMG20A (UniProt Q9NP66)
inactive: [1] -0.005 | [2] 0.125 | [3] -0.09 | [4] 0.017 | [5] -0.281 | [6] -0.009 | [8] 0.001 | [9] -0.013 | [10] 0.006 | [11] -0.05 | [12] 0.043 | [13] -0.015 | [14] 0.275 | [15] 0.062 | [16] 0.043 | [17] -0.405 | [18] 0.026 | [19] 0.007
active: [7] 0.429
